Source: patent US8476434B2, “Protein kinase modulators and method of use” (Amgen Inc., priority 2004, dated 2013)
Some results were stated once for a whole list of compounds, not compound by compound.

Sequences of proteins named here, by UniProt entry; tags and fusion partners are left off. Residues count along the entry.
UniProt Q02763, 23-1124: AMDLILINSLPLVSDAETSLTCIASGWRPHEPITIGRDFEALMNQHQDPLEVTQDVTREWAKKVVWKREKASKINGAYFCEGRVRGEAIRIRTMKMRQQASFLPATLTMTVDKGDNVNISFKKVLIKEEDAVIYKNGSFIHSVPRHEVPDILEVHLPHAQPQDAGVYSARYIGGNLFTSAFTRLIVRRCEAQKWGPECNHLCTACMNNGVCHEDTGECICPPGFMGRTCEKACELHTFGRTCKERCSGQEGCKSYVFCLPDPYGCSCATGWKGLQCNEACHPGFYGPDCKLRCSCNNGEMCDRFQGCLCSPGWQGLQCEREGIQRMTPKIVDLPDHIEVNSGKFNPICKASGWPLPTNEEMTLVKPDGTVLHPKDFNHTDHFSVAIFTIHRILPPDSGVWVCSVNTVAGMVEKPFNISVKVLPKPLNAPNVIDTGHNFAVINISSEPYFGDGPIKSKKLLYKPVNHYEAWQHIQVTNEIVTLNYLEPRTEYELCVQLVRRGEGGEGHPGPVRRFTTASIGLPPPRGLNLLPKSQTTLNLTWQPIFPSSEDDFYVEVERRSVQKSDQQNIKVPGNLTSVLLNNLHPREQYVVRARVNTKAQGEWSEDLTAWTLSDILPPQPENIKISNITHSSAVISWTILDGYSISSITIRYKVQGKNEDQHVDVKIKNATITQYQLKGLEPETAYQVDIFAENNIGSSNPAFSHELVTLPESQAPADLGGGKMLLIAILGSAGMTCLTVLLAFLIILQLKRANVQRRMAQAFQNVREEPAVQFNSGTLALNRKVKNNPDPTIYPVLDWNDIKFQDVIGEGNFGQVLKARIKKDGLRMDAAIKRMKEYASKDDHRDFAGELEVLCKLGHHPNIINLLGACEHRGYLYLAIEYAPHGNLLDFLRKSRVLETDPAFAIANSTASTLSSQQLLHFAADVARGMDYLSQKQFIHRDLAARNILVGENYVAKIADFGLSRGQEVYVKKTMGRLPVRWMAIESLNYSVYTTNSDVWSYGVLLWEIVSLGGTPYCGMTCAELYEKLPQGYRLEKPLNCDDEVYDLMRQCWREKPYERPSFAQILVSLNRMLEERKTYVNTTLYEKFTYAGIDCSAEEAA
UniProt Q96GD4, whole entry: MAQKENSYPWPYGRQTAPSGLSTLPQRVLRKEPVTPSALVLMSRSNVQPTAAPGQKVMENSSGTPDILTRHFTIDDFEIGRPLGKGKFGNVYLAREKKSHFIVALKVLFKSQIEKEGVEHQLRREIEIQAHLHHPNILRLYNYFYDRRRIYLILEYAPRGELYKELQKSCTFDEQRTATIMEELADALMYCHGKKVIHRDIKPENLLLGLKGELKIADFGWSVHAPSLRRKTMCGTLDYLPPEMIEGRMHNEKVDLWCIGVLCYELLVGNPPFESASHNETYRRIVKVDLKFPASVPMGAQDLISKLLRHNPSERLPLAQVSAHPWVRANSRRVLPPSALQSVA

Tests used:
Tie-2 kinase enzyme = Tie-2 kinase enzyme (Homo sapiens, UniProt Q02763); assay: Tie-2 Homogenous Time Resolved Fluorescent (HTRF) kinase assay; type: biochemical; settings: read-out: IC50's for the inhibition of Tie-2 as measured by the HTRF assay
AuroraB FL His = target: T1, AuroraB FL His (Homo sapiens, UniProt Q96GD4); assay: AuroraB Homogeneous Time Resolved Fluorescent (HTRF) kinase assay; type: biochemical; settings: read-out: activity in the Aurora kinase B HTRF assay
T1 construct: AuroraB FL His; His

In the case of `Cc1ccc(C(=O)Nc2cc(C(F)(F)F)ccc2F)cc1Nc1ncccc1-c1ccncn1` [Example 100, N-(2-fluoro-5-(trifluoromethyl)phenyl)-4-methyl-3-((3-(4-pyrimidinyl)-2-pyridinyl)amino)benzamide], the IC50 (Tie-2 kinase enzyme) is reported as < 5 µM and the IC50 (AuroraB FL His) is reported as < 10 µM.
In the case of `Cc1ccc(C(=O)Nc2ccc3c(c2)CCC3)cc1Nc1ncccc1-c1ccncn1` [Example 107, N-(2,3-dihydro-1H-inden-5-yl)-4-methyl-3-((3-(4-pyrimidinyl)-2-pyridinyl)amino)benzamide], the IC50 (Tie-2 kinase enzyme) is reported as < 5 µM and the IC50 (AuroraB FL His) is reported as < 10 µM.
In the case of `Cc1ccc(C(=O)Nc2ccc(F)c(C(F)(F)F)c2)cc1Nc1ncccc1-c1ccncn1` [Example 111, N-(4-fluoro-3-(trifluoromethyl)phenyl)-4-methyl-3-((3-(4-pyrimidinyl)-2-pyridinyl)amino)benzamide], the IC50 (Tie-2 kinase enzyme) is reported as < 5 µM and the IC50 (AuroraB FL His) is reported as < 10 µM.
With `Cc1ccc(C(=O)Nc2ccc(Cl)c(C(F)(F)F)c2)cc1Nc1ncccc1-c1ccncn1` [Example 116, N-(4-chloro-3-(trifluoromethyl)phenyl)-4-methyl-3-((3-(4-pyrimidinyl)-2-pyridinyl)amino)benzamide] the IC50 (Tie-2 kinase enzyme) was < 5 µM and the IC50 (AuroraB FL His) was < 10 µM.
`Cc1ccc(C(F)(F)F)cc1NC(=O)c1ccc(C)c(Nc2ncccc2-c2ccncn2)c1` [Example 117, 4-methyl-N-(2-methyl-5-(trifluoromethyl)phenyl)-3-((3-(4-pyrimidinyl)-2-pyridinyl)amino)benzamide] was tested, and the IC50 (Tie-2 kinase enzyme) was < 5 µM and the IC50 (AuroraB FL His) was < 10 µM.
`CCOc1cccc(NC(=O)c2ccc(C)c(Nc3ncccc3-c3ccncn3)c2)c1` [Example 139, N-(3-(ethyloxy)phenyl)-4-methyl-3-((3-(4-pyrimidinyl)-2-pyridinyl)amino)benzamide] was tested, and the IC50 (Tie-2 kinase enzyme) was < 5 µM and the IC50 (AuroraB FL His) was < 10 µM.
With `O=C(Nc1cccc2ccccc12)c1cccc(Oc2ncccc2-c2ccncn2)c1` [Example 581, N-(1-naphthalenyl)-3-((3-(4-pyrimidinyl)-2-pyridinyl)oxy)benzamide] the IC50 (AuroraB FL His) was < 10 µM.
With `CNc1nccc(-c2cccnc2Oc2ccc(C(=O)Nc3cccc(C(F)(F)F)c3)cc2)n1` [Example 628, 4-(3-(2-(methylamino)pyrimidin-4-yl)pyridin-2-yloxy)-N-(3-(trifluoromethyl)phenyl) benzamide] the IC50 (AuroraB FL His) was < 10 µM.
In the case of `CCOC(=O)NC(=O)Nc1ccc(Oc2ncccc2-c2ccnc(NC)n2)cc1` [Example 1137, ethyl 4-(3-(2-(methylamino)pyrimidin-4-yl)pyridin-2-yloxy)phenylcarbamoyl-carbamate], the IC50 (AuroraB FL His) is reported as < 10 µM.
With `CNc1nccc(-c2cccnc2Oc2ccc(NC(=O)C3CCN(c4ccc(OC)cc4)C3=O)cc2)n1` (centres unmarked) [Example 1139, 1-(4-methoxyphenyl)-N-(4-(3-(2-(methylamino)pyrimidin-4-yl)pyridin-2-yloxy)phenyl)-2-oxopyrrolidine-3-carboxamide] the IC50 (AuroraB FL His) was < 10 µM.
With `CNc1nccc(-c2cccnc2Oc2ccc(NC(=O)C3CCN(c4ccccc4F)C3=O)cc2)n1` (centres unmarked) [Example 1140, 1-(2-fluorophenyl)-N-(4-(3-(2-(methylamino)pyrimidin-4-yl)pyridin-2-yloxy)phenyl)-2-oxopyrrolidine-3-carboxamide] the IC50 (AuroraB FL His) was < 10 µM.
In the case of `CNc1nccc(-c2cccnc2Oc2ccc(NC(=O)CC3NC(=S)N(c4ccccc4)C3=O)cc2)n1` (centres unmarked) [Example 1149, N-(4-(3-(2-(methylamino)pyrimidin-4-yl)pyridin-2-yloxy)phenyl)-2-(5-oxo-1-phenyl-2-thioxoimidazolidin-4-yl)acetamide], the IC50 (AuroraB FL His) is reported as < 10 µM.
`CNc1nccc(-c2cccnc2Oc2ccc(NC(=O)NC(C)(C)C)cc2OC)n1` [Example 1150, 1-tert-butyl-3-(3-methoxy-4-(3-(2-(methylamino)pyrimidin-4-yl)pyridin-2-yloxy)phenyl)urea] was tested, and the IC50 (AuroraB FL His) was < 10 µM.
With `CNc1nccc(-c2cccnc2Oc2ccc(NC(=S)NC(=O)c3ccccc3)cc2)n1` [Example 1151, 1-benzoyl-3-(4-(3-(2-(methylamino)pyrimidin-4-yl)pyridin-2-yloxy)phenyl)thiourea] the IC50 (AuroraB FL His) was < 10 µM.
